# Data: patent US20250144075A1, “Melanin for treating lipofuscin-associated diseases” (Katairo GmbH, priority 2022, published 2025)
# Experiment: Oxidation/degradation of A2E in acetonitrile solution under room light, A2E quantified by LCMSMS
# Conditions: room temperature, 300 lux, A2E starts at 10 μM
compound,measurement,setting,value
COCCO[C@@H]1c2ccn3c(C)c(C)nc3c2N[C@H](c2ccccc2)[C@H]1O [soraprazan],A2E μM 0 h,time after mixing 0 h,10 µM
same,A2E μM 2 h,time after mixing 2 h,8.29 µM
